Assay results reported in patent US20230416688A1, “CHEMICAL CULTURE SYSTEM AND USE THEREOF” (IREGENE THERAPEUTICS LTD, priority 2020, published 2023).
At least one structure is not confirmed: it was looked up by name or label, or the drawing left a doubt.

Legend:
[1] = test system: human neural cell line ReNcell VM; test: Cyquant cell viability assay, neural cell line, compound concentration screening; assay type: cell-based; details: FIG. 2c; units printed in the value (nM to μM)
Experimental: 6-well culture plates were coated with 50 μg/mL polylysine (SIGMA, P6407) and incubated for more than 3 h at 37° C. in a thermostat after plate laying; then further coated with 5 μg/mL Laminin (I2020, SIGMAALDRICH) and incubated for more than 3 h at 37° C. in a thermostat after plate laying. Mouse primary cells and the human neural cell line ReNcell VM were cultured, where mouse primary cell isolation was performed according to the method described in Nature Protocols. Volume 7, pages 1741-1754 (2012). Cell culture conditions were 37° C., 5% carbon dioxide (Panasonic, MCO-18AC), and cell adherent culture. The culture medium of the present invention, Neuralbasal+I0% FBS and N2B27 culture medium were used for comparison, respectively. Cell passage was digested with 0.05% trypsin/EDTA at 37° C. for 5 min, and the cell digestion was terminated with DMEM+10% FBS. […]
(§1) The Cyquant assay is used for quantitative detection of cell viability to compare the effects of different medium components on the physiological state of cells during long-term cell culture. […] Samples were taken on day 1, day 5, day 15 and day 30, and cell viability assays were performed using CyQuant Kit (Invitrogen, X12223) and operated according to the instruction manual, and using SpectraMax i3 Multi-Mode Microplate Reader (VWR, model ID3-STD) for data reading. […]

[2] = test system: induced cortical neurons; test: Cyquant cell viability assay during induction of cortical neurons; assay type: cell-based, human; details: FIG. 6l; cortical neuron induction; units given in the value
Experimental: For cortical neuron differentiation, 6-well culture plates were coated with 50 μg/mL poly-Lysine (SIGMA, P6407) and incubated for more than 3 h in a 37° C. incubator after plate laying; then further coated with 3 μg/mL laminin (Laminin, 12020, SIGMAALDRICH) and incubated for more than 3 h at 37° C. after plate laying. The induced nerve stem cells obtained in Example 3 was re-inoculated into T25 culture plates at a rate of 1×105 per vial. Neural stem cells were cultured using NouvNeu culture medium at 37° C. and 5% CO2 (Panasonic, MCO-18AC), and the medium was replaced with fresh medium every three days until neurons formation on day 30. In the control experiment, N2B27 medium was used for neuron induction, and the specific operation steps were the same as above.
as §1, with “10,” for “5,”, “35,” for “30,”, “i3Multi-Mode” for “i3 Multi-Mode”, “Model” for “model”

For `CC1(C)CC(O)CC(C)(C)N1[O]` [piperidinol oxide, 4-Hydroxy-TEMPO], the “use range of concentration in the medium (Cyquant)” value [1] was 10 nM-200 μM and the “use range of concentration in the medium (Cyquant)” value [2] was 10 nM-200 μM.
